Results are given in words; binding and its absence hold for the method and conditions named. Some entries that bind do so weakly or less than the wild type.

In test [1] the target is Caenorhabditis elegans manganese superoxide dismutase MnSOD-2 (Caenorhabditis elegans) (UniProt P31161). Kind of test: crystal structure; hanging drop, 0.1 M Bicine pH 9.2 with 3.0 M (MnSOD-2) or 2.7 M (MnSOD-3) ammonium sulfate, 291 K; space group P4(1)2(1)2, two subunits per asymmetric unit; data at 100 K (MnSOD-3 also at 293 K); both purified.
Test [2] deals with Caenorhabditis elegans manganese superoxide dismutase MnSOD-3 (Caenorhabditis elegans) (UniProt P41977). The test is described as above.

B1: Caenorhabditis elegans manganese superoxide dismutase MnSOD-2 (enzyme)
chain: MKHSLPDLPYDYADLEPVISHEIMQLHHQKHHATYVNNLNQIEEKLHEAVSKGNVKEAIALQPALKFNGGGHINHSIFWTNLAKDGGEPSAELLTAIKSDFGSLDNLQKQLSASTVAVQGSGWGWLGYCPKGKILKVATCANQDPLEATTGLVPLFGIDVWEHAYYLQYKNVRPDYVNAIWKIANWKNVSERFAKAQQ
notes: N-terminal methionine of the expression construct, retained in the purified protein by mass spectrometry; Superoxide dismutase [Mn]; Expressed without a histidine tag; Cloning is as in Hunter et al., 1997
Turning to B1, the binding result in test [1] was “binds”.

B2: Caenorhabditis elegans manganese superoxide dismutase MnSOD-3 (enzyme)
chain: MKHTLPDLPFDYADLEPVISHEIMQLHHQKHHATYVNNLNQIEEKLHEAVSKGNLKEAIALQPALKFNGGGHINHSIFWTNLAKDGGEPSKELMDTIKRDFGSLDNLQKRLSDITIAVQGSGWGWLGYCKKDKILKIATCANQDPLEGMVPLFGIDVWEHAYYLQYKNVRPDYVHAIWKIANWKNISERFANARQ
notes: as for B1
In the case of B2, the binding entry in test [2] is “binds”.

(Values after publication PMC2593702, “Purification, crystallization and X-ray structures of the two manganese superoxide dismutases from Caenorhabditis elegans” (Acta Crystallographica Section F, 2008).)
